DAPI activity (viability loss) data for one molecule are collected here from PubChem BioAssay AID651582 (Sanford-Burnham Center for Chemical Genomics, 2012).

The list shows a part of the results.

The test in a line: inhibitors of triacylglycerol accumulation, primary screen, cell-based, uHTS, fluorescence, H9c2 (AID 651582). To be noted: H9c2 cells, Nile Red lipid (TAG) fluorescence; DAPI nuclei count viability; at 12.5 µM; cells loaded with 200 µM oleic acid.
Molecule `O=P(Nc1ccccn1)(c1ccc(Br)cc1)c1ccc(Br)cc1` displayed a DAPI activity (viability loss) of 2.74%.
